# From the supplement of paper PMC12823440, “Inhibitors supercharge kinase turnover through native proteolytic circuits” (Nature, 2025)
# Protein sequences, listed by entry. Tags and fused reporters are not part of them. Lines headed by an entry give the natural chain unless they say otherwise; changes in a name come on top.
# UniProt P31749: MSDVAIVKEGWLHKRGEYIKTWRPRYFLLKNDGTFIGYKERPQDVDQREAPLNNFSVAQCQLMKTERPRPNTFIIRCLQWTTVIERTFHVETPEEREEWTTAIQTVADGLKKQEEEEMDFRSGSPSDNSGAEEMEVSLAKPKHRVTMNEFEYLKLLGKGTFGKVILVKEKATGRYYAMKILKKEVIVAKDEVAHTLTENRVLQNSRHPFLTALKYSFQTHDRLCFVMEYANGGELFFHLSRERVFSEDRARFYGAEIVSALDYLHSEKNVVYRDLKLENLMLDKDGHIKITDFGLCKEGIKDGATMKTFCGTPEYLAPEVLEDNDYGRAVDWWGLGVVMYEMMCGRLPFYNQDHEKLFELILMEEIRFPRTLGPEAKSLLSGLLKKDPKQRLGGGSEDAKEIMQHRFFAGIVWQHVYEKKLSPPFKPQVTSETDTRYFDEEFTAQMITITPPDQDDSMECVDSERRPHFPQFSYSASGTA
# Structures can show the parent of a compound that is named as a salt. The list shows a part of the results. The calls rarely recur for the same compound in another form.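 In K562 cells expressing nanoluciferase-fused kinases, luminescence was recorded at 4 h intervals between 2 and 18 h, normalized as percent of control with DMSO at 100% and a positive control at 0%. A significant (2 sigma) signal drop marks a time point as decreased. The authors' rule for a hit is not shown and takes in more than the number of time points.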
# Target: AKT1 (UniProt P31749)
# Assay: number of time points (of 5) at which kinase-Nluc abundance scored as decreased, DMSO-normalised (count); higher = more persistent destabilization
# Settings: K562; 2-18 h
row,SMILES,number of time points
1,N#Cc1cnc2c(Cl)cc(NCc3cn(CCN4CCCCCC4)nn3)cc2c1Nc1ccc(F)c(Cl)c1 [Cot inhibitor-1] (10 µM),0
2,Cc1cc(Nc2cc(N)ncn2)c(=O)n2c1C(=O)NC21CCCCC1 [Tomivosertib] (10 µM),0
3,CC(Cc1ccc(O)c(O)c1)C(C)Cc1ccc(O)c(O)c1 (stereo not drawn) [Nordihydroguaiaretic acid] (2.5 µM),0
4,CNC(=O)c1ccc2c(C(=Nc3cccc(CN(C)C)c3)c3ccccc3)c(O)[nH]c2c1 [MEK inhibitor] (10 µM),0
5,COC(=O)[C@H](CCSC)NC(=O)c1ccc(NC[C@@H](N)CS)cc1-c1ccccc1 [FTI-277 (hydrochloride)] (10 µM),0
6,C=CC(=O)Nc1ccc(C(=O)Nc2[nH]nc3c2CN(C(=O)N[C@H](CN(C)C)c2ccccc2)C3(C)C)cc1 (10 µM),1
7,CCN(CC)CCCC(C)Nc1nc(C)cc(Nc2ccc3nc(C)cc(N)c3c2)n1 (stereo not drawn) (10 µM),0
8,COc1cc(F)ccc1-c1ncnc(Nc2cccc(C[S@](C)(=N)=O)c2)n1 [Atuveciclib] (2.5 µM),0
9,O=C(c1cccc(Cl)c1F)N1CCN(Cc2cccc(Nc3nccs3)n2)CC1 (2.5 µM),0
10,N#Cc1ccc(-c2cnc3ccc(-c4ccc(C(=O)N5CCOCC5)cc4)cn23)cc1 (10 µM),0
11,Cc1ccc(C(=O)NC2CC2)cc1-n1ncc(C(=O)c2cccc(C#N)c2)c1N [Acumapimod] (10 µM),0
12,N#Cc1ccc(-c2cnc3[nH]cc(NC(=O)c4cccnc4)c3c2)cc1 (10 µM),0
13,CC1(N)CCN(c2cccnc2NC(=O)c2nc(-c3ncccc3C(F)(F)F)cnc2N)CC1 [Darovasertib] (10 µM),0
14,COc1cc(N2CCC(N3CCN(C)CC3)CC2)ccc1Nc1ncc(Cl)c(-c2c[nH]c3ccccc23)n1 (2.5 µM),0
15,CN1CCN(c2ccc(Nc3ncc4cc(C#N)c(=O)n(C5CCCC5)c4n3)cc2)CC1 (10 µM),0
16,CO[C@H]1CC[C@H](N2C(=O)CNc3ncc(-c4ccc(C(C)(C)O)nc4)nc32)CC1 (2.5 µM),0
17,Cc1c(C(=O)Nc2ccc(Oc3ccnc4[nH]cc(-c5ccccc5)c34)c(F)c2)c(=O)n(-c2ccc(F)cc2)n1C (10 µM),0
18,COc1ccc(Nc2ncc(C(F)(F)F)c(NC3CC3)n2)cc1OC (10 µM),0
19,C[C@@H]1O[C@@H](Oc2cc(O)c3c(=O)c(O[C@@H]4O[C@@H](C)[C@H](O)[C@@H](O)[C@H]4O)c(-c4ccc(O)cc4)oc3c2)[C@H](O)[C@H](O)[C@H]1O [Kaempferitrin] (10 µM),0

row,SMILES,number of time points
1,COC(=O)Nc1ccc(-c2nc(N3CCOCC3)c3cnn(C4CCN(Cc5cccnc5)CC4)c3n2)cc1 (10 µM),0
2,CC(C)Oc1ccc(F)c(-c2cnc(N)c(C(=O)Nc3cnccc3N3CCC[C@@H](C(=O)O)C3)n2)c1 (2 µM),0
3,O=Nc1c(-c2c(O)[nH]c3cc(Br)ccc23)[nH]c2ccccc12 [GSK 3 Inhibitor IX] (2.5 µM),0
4,NCC1CCC(CNc2nc(NCc3ccccc3OC(F)(F)F)ncc2[N+](=O)[O-])CC1 (stereo not drawn) [PKC-theta inhibitor] (10 µM),0
5,N[C@@H]1CCCN(c2c(/C=C3\SC(=O)NC3=O)cccc2-c2ccccc2)C1 (10 µM),0
6,CCn1c(-c2nonc2N)nc2c(C#CC(C)(C)O)ncc(OC[C@H]3CCCNC3)c21 (10 µM),0
7,CNC(=O)c1cc2c(Oc3ccc(NC(=O)C4(C(=O)Nc5ccc(F)cc5)CC4)cc3)ccnc2cc1OC (2.5 µM),0
8,C=CC(=O)N1CC[C@@H](Oc2nc(Nc3ccc(N4CCC(N5CCN(C)CC5)CC4)cc3)c(C(N)=O)nc2CC)C1 [Naquotinib (mesylate)] (2.5 µM),0
9,C=CC(=O)Nc1cc(Nc2nccc(-c3cn(C)c4ccccc34)n2)c(OC)cc1OCCN(C)C [Rezivertinib] (2.5 µM),0
10,Oc1c(F)cc(-c2cnccc2-c2ccc(N3CCOCC3)cc2)cc1F (10 µM),0
11,Brc1ccc(CSc2nc3ccccc3o2)cc1 [BMP signaling agonist sb4] (10 µM),0
12,O=C1OC(/C=C/c2ccccc2)=NC/1=C\c1cccnc1 (10 µM),0
13,O=C(NCCN1CCOCC1)Nc1nc2ccc(Sc3nnc4ccc(-c5ccc(F)cc5)nn34)cc2s1 (10 µM),0
14,Cn1c(CNc2cccc(C(=O)NCc3ccccc3C(F)(F)F)c2)nnc1-c1ccncc1 (10 µM),0
15,COc1cc2cc(Oc3ccc4ccc(=O)oc4c3)c(=O)oc2cc1O [Daphnoretin] (10 µM),0
16,O=C(O)c1cc(N(Cc2ccccc2O)Cc2cc(O)ccc2O)ccc1O [Lavendustin A] (10 µM),0
17,Cc1c(Cl)cccc1S(=O)(=O)Nc1nc(NCCc2ccccc2)nc2c1CN(Cc1ccccc1)CC2 (2.5 µM),0
18,CO[C@H]1C[C@@H]2CC[C@@H](C)[C@@](O)(O2)C(=O)C(=O)N2CCCC[C@H]2C(=O)O[C@H]([C@H](C)C[C@@H]2CC[C@@H](OC(=O)C(C)(CO)CO)[C@H](OC)C2)CC(=O)[C@H](C)/C=C(\C)[C@@H](O)[C@@H](OC)C(=O)[C@H](C)C[C@H](C)/C=C/C=C/C=C/1C [Temsirolimus] (2.5 µM),0
19,O=C1Nc2ccc(CN3C(=O)CSC3=O)cc2/C1=C/c1cc(CN2CCOCC2)c[nH]1 (10 µM),0

# Three compounds drawn at random from those above, as already listed:
row,SMILES,number of time points
13,O=C(NCCN1CCOCC1)Nc1nc2ccc(Sc3nnc4ccc(-c5ccc(F)cc5)nn34)cc2s1 (10 µM),0
19,O=C1Nc2ccc(CN3C(=O)CSC3=O)cc2/C1=C/c1cc(CN2CCOCC2)c[nH]1 (10 µM),0
5,N[C@@H]1CCCN(c2c(/C=C3\SC(=O)NC3=O)cccc2-c2ccccc2)C1 (10 µM),0
